At least one compound was matched to its structure with a doubt left.
Columns and labels:
[1] = Comparison of tetracyclin release from alkylsilane-coated glass substrate and magnesium alloy substrate; type: physicochemical
[2] = In vitro release of TC or Rh in simulated body fluid (SBF) from alkylsilane-coated Mg discs; type: physicochemical; conditions: alkylsilane coated Mg disks incubated in SBF, room temperature, 21 day period, sampled every two days; FIG. 1; one way ANOVA highly significant
Description: Self-assembled hybrid […] (AS) films on Mg were prepared using a dip-coating technique. The precursor solution was prepared by mixing 0.25 ml (0.73 mM) of […]) (Alfa Aesar, Ward Hill, MA, USA), 0.43 ml (2.92 mM) of […]) (Alfa Aesar, Ward Hill, MA, USA), 2 ml (0.032 mM) of ethanol and 0.25 ml of 0.010 mM HCl (aq.). […] Both the solutions were kept in the dark to avoid contact with light The Mg discs passivated with NaOH were dip coated in the TC- or Rh-containing solution for 1 minute, and dried in air for 10 minutes at room temperature in the dark. The discs were subsequently dried in an incubator at 37° C. for 24 hours to remove any trace amounts of organic solvents. […] Every two days, 150 μl of SBF was taken from each tube and concentrations of Tc and Rh were determined spectroscopically. The concentrations of TC or Rh were determined by measuring absorbance at 280 nm for TC, and fluorescence at excitation/emission wavelengths of 525/555 nm for Rh using a Synergy H1 microplate reader (BioTek instruments, Winooski, VT, USA). Standard curves were created by measuring absorbance and fluorescence intensities of the series of TC and Rh samples of known concentrations. Absorbance and Fluorescence intensity of each sample was calculated as an average of three separate readings. […] Cumulative release of TC or Rh over 21 day period was determined.

CN(C)[C@@H]1C(O)=C(C(N)=O)C(=O)[C@@]2(O)C(O)=C3C(=O)c4c(O)cccc4[C@@](C)(O)[C@H]3C[C@@H]12 [TC, tetracycline]
release of tetracyclin from coated substrate ([1]; alkysilane-coated glass substrate): not observed
release of tetracyclin from coated substrate ([1]; degraded coated magnesium alloy substrate): observed
concentration in SBF media (cumulative release) [2]: incremental increase

Reference: patent US12303621B2, “Use of self-assembled alkylsilane coatings for drug delivery applications” (priority 2017, dated 2025)
